{"sequences": {"note": "The chains behind the UniProt entries cited, without tags or fusion partners. Where a name states a change or a piece, a line headed by the entry shows the natural chain unless it says otherwise.", "UniProt Q96HA7": "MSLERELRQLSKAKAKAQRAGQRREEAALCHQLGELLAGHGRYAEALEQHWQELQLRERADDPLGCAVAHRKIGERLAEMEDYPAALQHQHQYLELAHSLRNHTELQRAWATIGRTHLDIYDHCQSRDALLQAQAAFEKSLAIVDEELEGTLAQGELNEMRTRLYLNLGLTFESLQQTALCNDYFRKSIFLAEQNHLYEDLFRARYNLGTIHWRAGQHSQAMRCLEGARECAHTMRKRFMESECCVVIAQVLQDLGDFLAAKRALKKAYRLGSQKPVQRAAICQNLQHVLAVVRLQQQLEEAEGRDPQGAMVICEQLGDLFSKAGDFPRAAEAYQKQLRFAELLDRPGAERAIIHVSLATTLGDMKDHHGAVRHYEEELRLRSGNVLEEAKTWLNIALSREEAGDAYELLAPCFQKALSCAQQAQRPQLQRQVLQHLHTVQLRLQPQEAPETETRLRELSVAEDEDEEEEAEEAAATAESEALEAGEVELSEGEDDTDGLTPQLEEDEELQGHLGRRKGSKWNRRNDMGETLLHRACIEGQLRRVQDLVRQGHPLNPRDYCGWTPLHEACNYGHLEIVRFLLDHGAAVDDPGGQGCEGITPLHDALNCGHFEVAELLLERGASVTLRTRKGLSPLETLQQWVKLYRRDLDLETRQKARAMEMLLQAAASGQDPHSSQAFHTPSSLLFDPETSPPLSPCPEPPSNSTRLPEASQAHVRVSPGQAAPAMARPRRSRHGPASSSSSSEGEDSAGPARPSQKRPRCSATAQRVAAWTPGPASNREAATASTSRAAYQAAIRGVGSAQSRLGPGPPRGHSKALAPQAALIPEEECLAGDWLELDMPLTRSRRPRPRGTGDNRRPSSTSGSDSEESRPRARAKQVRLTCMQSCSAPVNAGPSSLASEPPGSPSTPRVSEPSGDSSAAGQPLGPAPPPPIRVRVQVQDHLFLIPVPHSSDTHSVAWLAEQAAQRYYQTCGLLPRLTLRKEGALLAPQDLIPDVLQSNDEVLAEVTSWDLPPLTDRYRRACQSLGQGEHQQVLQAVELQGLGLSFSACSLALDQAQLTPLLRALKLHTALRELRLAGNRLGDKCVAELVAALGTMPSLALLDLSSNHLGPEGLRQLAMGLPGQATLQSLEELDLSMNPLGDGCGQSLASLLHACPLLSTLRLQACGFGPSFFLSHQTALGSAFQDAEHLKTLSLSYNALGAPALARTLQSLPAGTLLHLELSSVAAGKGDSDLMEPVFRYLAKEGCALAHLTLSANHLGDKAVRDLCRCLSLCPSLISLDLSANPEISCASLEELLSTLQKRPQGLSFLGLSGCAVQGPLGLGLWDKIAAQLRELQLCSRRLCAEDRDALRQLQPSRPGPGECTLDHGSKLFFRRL", "UniProt Q68CZ2": "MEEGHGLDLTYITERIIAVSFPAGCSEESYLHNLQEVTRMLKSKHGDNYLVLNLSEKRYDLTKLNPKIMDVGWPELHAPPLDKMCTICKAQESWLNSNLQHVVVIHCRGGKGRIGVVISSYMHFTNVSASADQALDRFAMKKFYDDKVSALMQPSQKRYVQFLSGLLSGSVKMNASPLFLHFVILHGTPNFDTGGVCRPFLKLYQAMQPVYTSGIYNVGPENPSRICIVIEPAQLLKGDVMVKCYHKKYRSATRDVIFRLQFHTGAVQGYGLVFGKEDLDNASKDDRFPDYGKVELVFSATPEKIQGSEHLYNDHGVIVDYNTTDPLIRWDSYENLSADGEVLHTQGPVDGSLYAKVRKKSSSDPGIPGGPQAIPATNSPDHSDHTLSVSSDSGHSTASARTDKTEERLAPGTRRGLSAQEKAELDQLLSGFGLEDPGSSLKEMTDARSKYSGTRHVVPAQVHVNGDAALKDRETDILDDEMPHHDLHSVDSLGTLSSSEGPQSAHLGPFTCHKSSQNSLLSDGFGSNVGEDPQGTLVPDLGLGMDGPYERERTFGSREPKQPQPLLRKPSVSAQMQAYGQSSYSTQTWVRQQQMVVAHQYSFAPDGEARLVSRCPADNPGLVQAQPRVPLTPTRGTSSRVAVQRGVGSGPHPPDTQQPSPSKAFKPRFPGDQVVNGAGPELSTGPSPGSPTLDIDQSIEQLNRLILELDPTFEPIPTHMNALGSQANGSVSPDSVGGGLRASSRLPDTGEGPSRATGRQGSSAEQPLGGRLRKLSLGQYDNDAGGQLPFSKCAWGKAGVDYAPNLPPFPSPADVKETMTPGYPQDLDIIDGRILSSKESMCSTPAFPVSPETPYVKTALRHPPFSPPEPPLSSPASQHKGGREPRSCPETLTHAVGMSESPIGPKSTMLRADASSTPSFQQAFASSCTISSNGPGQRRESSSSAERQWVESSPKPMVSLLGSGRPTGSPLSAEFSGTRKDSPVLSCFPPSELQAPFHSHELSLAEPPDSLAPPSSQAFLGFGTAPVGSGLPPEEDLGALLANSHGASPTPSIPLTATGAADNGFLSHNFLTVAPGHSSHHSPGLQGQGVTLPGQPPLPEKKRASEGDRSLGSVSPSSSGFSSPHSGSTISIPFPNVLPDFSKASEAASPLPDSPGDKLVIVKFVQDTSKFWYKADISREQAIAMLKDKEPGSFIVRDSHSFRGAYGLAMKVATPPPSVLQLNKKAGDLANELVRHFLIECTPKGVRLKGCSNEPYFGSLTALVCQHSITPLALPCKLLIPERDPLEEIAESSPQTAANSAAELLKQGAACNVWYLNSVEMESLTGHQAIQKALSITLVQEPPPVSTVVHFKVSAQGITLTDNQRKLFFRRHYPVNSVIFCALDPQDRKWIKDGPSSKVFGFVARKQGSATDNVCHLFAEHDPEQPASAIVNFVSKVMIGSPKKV", "UniProt Q92544": "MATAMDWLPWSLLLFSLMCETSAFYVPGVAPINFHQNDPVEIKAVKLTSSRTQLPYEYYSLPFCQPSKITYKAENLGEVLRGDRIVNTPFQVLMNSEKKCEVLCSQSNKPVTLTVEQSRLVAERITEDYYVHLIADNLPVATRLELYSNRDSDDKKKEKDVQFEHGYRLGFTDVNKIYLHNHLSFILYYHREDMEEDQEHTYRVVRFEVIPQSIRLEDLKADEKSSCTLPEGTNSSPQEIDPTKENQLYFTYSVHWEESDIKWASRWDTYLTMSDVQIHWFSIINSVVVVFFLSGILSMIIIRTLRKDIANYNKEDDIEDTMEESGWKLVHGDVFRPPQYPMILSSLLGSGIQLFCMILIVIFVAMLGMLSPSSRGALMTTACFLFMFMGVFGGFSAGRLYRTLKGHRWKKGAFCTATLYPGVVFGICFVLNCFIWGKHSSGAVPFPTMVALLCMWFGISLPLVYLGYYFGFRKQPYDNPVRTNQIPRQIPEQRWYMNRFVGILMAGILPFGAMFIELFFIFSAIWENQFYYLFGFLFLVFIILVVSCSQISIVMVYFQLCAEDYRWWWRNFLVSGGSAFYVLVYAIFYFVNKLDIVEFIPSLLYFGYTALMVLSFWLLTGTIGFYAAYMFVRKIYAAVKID", "UniProt O95985": "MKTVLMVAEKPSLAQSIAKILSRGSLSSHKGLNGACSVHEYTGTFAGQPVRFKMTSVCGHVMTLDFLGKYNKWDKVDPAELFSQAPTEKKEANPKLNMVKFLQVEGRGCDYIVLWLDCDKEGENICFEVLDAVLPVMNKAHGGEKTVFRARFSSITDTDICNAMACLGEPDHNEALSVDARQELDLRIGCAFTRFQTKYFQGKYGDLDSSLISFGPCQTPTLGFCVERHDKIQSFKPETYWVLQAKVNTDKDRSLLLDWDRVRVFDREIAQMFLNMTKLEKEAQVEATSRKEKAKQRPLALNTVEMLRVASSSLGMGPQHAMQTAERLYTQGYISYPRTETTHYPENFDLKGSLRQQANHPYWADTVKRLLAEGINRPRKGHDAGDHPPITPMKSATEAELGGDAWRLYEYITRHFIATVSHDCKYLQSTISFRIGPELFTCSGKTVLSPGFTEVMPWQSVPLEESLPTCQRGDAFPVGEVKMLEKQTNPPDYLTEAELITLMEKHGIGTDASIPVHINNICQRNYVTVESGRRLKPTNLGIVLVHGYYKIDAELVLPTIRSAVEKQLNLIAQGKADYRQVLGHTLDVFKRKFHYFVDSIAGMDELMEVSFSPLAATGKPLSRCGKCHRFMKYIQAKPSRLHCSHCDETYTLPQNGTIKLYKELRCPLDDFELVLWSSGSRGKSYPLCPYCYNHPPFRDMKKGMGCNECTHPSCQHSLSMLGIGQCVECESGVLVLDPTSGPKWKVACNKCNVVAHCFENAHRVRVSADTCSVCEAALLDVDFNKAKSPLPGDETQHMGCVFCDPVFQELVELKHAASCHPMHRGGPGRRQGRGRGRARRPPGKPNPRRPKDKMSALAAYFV", "UniProt P11388": "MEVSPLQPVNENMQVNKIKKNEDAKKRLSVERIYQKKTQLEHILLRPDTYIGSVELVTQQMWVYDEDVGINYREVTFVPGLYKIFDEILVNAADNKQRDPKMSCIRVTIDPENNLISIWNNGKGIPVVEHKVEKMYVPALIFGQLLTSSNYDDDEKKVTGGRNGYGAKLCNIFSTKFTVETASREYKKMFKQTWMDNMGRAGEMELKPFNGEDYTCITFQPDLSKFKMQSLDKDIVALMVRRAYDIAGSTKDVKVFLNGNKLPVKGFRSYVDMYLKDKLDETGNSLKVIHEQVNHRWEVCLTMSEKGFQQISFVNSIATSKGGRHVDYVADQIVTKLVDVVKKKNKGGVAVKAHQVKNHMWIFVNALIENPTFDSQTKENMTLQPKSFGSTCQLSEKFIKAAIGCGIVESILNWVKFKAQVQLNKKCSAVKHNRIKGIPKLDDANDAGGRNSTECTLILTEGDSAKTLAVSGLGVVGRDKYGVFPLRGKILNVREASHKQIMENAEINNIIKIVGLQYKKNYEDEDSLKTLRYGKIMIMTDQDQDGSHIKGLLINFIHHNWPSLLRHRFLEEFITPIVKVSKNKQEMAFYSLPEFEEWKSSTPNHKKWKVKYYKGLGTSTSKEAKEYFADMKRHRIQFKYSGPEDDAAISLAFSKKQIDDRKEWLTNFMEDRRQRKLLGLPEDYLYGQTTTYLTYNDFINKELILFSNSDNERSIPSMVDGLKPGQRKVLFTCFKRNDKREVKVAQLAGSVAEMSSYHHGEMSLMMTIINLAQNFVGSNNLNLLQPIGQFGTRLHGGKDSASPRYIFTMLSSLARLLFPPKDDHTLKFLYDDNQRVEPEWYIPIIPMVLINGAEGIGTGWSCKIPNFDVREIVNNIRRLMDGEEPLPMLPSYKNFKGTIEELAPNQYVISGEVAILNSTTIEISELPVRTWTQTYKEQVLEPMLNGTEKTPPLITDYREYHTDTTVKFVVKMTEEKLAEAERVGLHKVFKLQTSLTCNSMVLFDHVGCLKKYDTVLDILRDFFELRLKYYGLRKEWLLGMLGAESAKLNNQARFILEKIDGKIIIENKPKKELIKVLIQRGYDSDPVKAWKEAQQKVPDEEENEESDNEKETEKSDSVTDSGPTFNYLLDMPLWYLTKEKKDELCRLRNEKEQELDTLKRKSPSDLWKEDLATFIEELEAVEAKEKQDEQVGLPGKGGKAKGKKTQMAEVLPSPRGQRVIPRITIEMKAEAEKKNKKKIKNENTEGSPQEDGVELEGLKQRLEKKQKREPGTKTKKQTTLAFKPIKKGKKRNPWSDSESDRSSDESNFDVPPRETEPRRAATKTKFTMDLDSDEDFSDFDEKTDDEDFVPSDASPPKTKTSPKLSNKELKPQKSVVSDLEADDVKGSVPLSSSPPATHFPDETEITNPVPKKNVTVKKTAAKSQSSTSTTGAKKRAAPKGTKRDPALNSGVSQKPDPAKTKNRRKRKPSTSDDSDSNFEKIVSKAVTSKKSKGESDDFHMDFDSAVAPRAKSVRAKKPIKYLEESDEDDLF", "UniProt O43399": "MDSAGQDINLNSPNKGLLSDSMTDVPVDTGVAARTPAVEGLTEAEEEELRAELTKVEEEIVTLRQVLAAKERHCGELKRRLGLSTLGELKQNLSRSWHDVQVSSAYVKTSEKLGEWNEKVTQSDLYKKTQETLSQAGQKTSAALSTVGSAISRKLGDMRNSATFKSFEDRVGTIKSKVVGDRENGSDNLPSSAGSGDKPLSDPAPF", "UniProt Q8NFQ8": "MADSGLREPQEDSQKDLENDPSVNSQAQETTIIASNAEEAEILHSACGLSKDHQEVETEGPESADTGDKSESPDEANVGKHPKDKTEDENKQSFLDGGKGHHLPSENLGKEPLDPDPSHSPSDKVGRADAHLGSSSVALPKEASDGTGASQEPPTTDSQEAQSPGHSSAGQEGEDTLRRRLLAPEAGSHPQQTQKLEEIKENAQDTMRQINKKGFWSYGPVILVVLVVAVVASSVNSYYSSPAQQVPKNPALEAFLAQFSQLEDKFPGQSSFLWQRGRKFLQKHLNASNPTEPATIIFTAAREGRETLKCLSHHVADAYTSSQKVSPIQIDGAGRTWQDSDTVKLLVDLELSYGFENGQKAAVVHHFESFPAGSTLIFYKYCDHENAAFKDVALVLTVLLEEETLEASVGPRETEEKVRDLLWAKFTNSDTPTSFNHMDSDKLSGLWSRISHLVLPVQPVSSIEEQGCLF"}, "source": "the supplement of paper PMC12067093", "about": "“Discovery and optimisation of a covalent ligand for TRIM25 and its application to targeted protein ubiquitination” (Chemical Science, 2025)", "compound": "CC1Cc2ccccc2N1C(=O)C1CCCN(C1)C(=O)CCl (mixture of isomers) [TRIM25 ligand 11 (diastereomer mixture)]", "assay": "probe-labelled cysteine peptide fold change vs DMSO (competition) (log2 fold change); higher = less target engagement (more negative = stronger competition)", "details": "THP-1, incubation time: 4 h", "note": "The list shows a part of the results.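 Also: competitive chemoproteomic profiling in live THP-1 cells with an iodoacetamide desthiobiotin (IA-DTB) probe, comparing probe-labelled peptide intensities in compound-treated cells against DMSO-treated controls.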"}
{"target": "TMEM209_Q96SK2_455_KWDTDLPTDSAIIMHVFCTYLDSR (UniProt Q96SK2)", "values": [{"measurement": "probe-labelled cysteine peptide fold change", "setting": "10 µM", "value": 0.0922}, {"measurement": "probe-labelled cysteine peptide fold change", "setting": "50 µM", "value": 0.0839}]}
{"target": "TOP2B_Q02880_426_AASNCGIVESILNWVK (UniProt Q02880)", "values": [{"measurement": "probe-labelled cysteine peptide fold change", "setting": "10 µM", "value": -0.12}, {"measurement": "probe-labelled cysteine peptide fold change", "setting": "50 µM", "value": -0.171}]}
{"target": "TMPO_P42166_518_QLPSLACK (UniProt P42166)", "values": [{"measurement": "probe-labelled cysteine peptide fold change", "setting": "10 µM", "value": 0.0401}, {"measurement": "probe-labelled cysteine peptide fold change", "setting": "50 µM", "value": -0.0147}]}
{"target": "TLN2_Q9Y4G6_1110_AVGSSMAQLLTCAAQGNEHYTGVAAR (UniProt Q9Y4G6)", "values": [{"measurement": "probe-labelled cysteine peptide fold change", "setting": "10 µM", "value": -0.0955}, {"measurement": "probe-labelled cysteine peptide fold change", "setting": "50 µM", "value": -0.234}]}
{"target": "TLN1_Q9Y490_1506+1509_HTSALCNSCR (UniProt Q9Y490)", "values": [{"measurement": "probe-labelled cysteine peptide fold change", "setting": "10 µM", "value": 0.12}, {"measurement": "probe-labelled cysteine peptide fold change", "setting": "50 µM", "value": 0.154}]}
{"target": "TOM1_O60784_77_NFHEVMLALTVLETCVK (UniProt O60784)", "values": [{"measurement": "probe-labelled cysteine peptide fold change", "setting": "10 µM", "value": 0.106}, {"measurement": "probe-labelled cysteine peptide fold change", "setting": "50 µM", "value": 0.00703}]}
{"target": "TOE1_Q96GM8_371_KQVCGDSIKPEETEQEVAADETR (UniProt Q96GM8)", "values": [{"measurement": "probe-labelled cysteine peptide fold change", "setting": "10 µM", "value": -0.0413}, {"measurement": "probe-labelled cysteine peptide fold change", "setting": "50 µM", "value": -0.201}]}
{"target": "TMCO6_Q96DC7_57_NDAPEEAGEGCVAAILGETEVQQFLR (UniProt Q96DC7)", "values": [{"measurement": "probe-labelled cysteine peptide fold change", "setting": "10 µM", "value": 0.0856}, {"measurement": "probe-labelled cysteine peptide fold change", "setting": "50 µM", "value": -0.0309}]}
{"target": "TOMM34_Q15785_236_ALCYLVLK (UniProt Q15785)", "values": [{"measurement": "probe-labelled cysteine peptide fold change", "setting": "10 µM", "value": 0.00178}, {"measurement": "probe-labelled cysteine peptide fold change", "setting": "50 µM", "value": 0.159}]}
{"target": "TONSL_Q96HA7_1345_LCAEDRDALR (UniProt Q96HA7)", "values": [{"measurement": "probe-labelled cysteine peptide fold change", "setting": "10 µM", "value": -0.0885}, {"measurement": "probe-labelled cysteine peptide fold change", "setting": "50 µM", "value": -0.107}]}
{"target": "TMEM30A_Q9NV96_157_ECEPYRR (UniProt Q9NV96)", "values": [{"measurement": "probe-labelled cysteine peptide fold change", "setting": "10 µM", "value": -0.11}, {"measurement": "probe-labelled cysteine peptide fold change", "setting": "50 µM", "value": -0.102}]}
{"target": "TMED5_Q9Y3A6_47_ECFYQPMPLK (UniProt Q9Y3A6)", "values": [{"measurement": "probe-labelled cysteine peptide fold change", "setting": "10 µM", "value": -0.157}, {"measurement": "probe-labelled cysteine peptide fold change", "setting": "50 µM", "value": -0.297}]}
{"target": "TMOD3_Q9NYL9_231_CFSLAATR (UniProt Q9NYL9)", "values": [{"measurement": "probe-labelled cysteine peptide fold change", "setting": "10 µM", "value": -0.00399}, {"measurement": "probe-labelled cysteine peptide fold change", "setting": "50 µM", "value": 0.00779}]}
{"target": "TNFAIP8_O95379_165_VNNVFDHFSDCEFLAALYNPFGNFKPHLQK (UniProt O95379)", "values": [{"measurement": "probe-labelled cysteine peptide fold change", "setting": "10 µM", "value": 0.088}, {"measurement": "probe-labelled cysteine peptide fold change", "setting": "50 µM", "value": -0.426}]}
{"target": "TOP2B_Q02880_204_FTVETACK (UniProt Q02880)", "values": [{"measurement": "probe-labelled cysteine peptide fold change", "setting": "10 µM", "value": -0.00659}, {"measurement": "probe-labelled cysteine peptide fold change", "setting": "50 µM", "value": 0.0527}]}
{"target": "TONSL_Q96HA7_1345_RLCAEDR (UniProt Q96HA7)", "values": [{"measurement": "probe-labelled cysteine peptide fold change", "setting": "10 µM", "value": 0.128}, {"measurement": "probe-labelled cysteine peptide fold change", "setting": "50 µM", "value": 0.0935}]}
{"target": "TLN1_Q9Y490_2161_ALEATTEHIRQELAVFCSPEPPAK (UniProt Q9Y490)", "values": [{"measurement": "probe-labelled cysteine peptide fold change", "setting": "10 µM", "value": -0.0662}, {"measurement": "probe-labelled cysteine peptide fold change", "setting": "50 µM", "value": -0.00307}]}
{"target": "TONSL_Q96HA7_124_THLDIYDHCQSR (UniProt Q96HA7)", "values": [{"measurement": "probe-labelled cysteine peptide fold change", "setting": "10 µM", "value": 0.0838}, {"measurement": "probe-labelled cysteine peptide fold change", "setting": "50 µM", "value": 0.0245}]}
{"target": "TNS3_Q68CZ2_107_AQESWLNSNLQHVVVIHCR (UniProt Q68CZ2)", "values": [{"measurement": "probe-labelled cysteine peptide fold change", "setting": "10 µM", "value": 0.0474}, {"measurement": "probe-labelled cysteine peptide fold change", "setting": "50 µM", "value": 0.311}]}
{"target": "TLN1_Q9Y490_29_TMQFEPSTMVYDACR (UniProt Q9Y490)", "values": [{"measurement": "probe-labelled cysteine peptide fold change", "setting": "10 µM", "value": 0.051}, {"measurement": "probe-labelled cysteine peptide fold change", "setting": "50 µM", "value": -0.185}]}
{"target": "TONSL_Q96HA7_972_YYQTCGLLPR (UniProt Q96HA7)", "values": [{"measurement": "probe-labelled cysteine peptide fold change", "setting": "10 µM", "value": 0.08}, {"measurement": "probe-labelled cysteine peptide fold change", "setting": "50 µM", "value": 0.0172}]}
{"target": "TLN1_Q9Y490_1671_APGQLECETAIAALNSCLR (UniProt Q9Y490)", "values": [{"measurement": "probe-labelled cysteine peptide fold change", "setting": "10 µM", "value": 0.0258}, {"measurement": "probe-labelled cysteine peptide fold change", "setting": "50 µM", "value": 0.0981}]}
{"target": "TNFAIP2_Q03169_512_LPEFSELQGCFREELMEALHLHLVK (UniProt Q03169)", "values": [{"measurement": "probe-labelled cysteine peptide fold change", "setting": "10 µM", "value": 0.0837}, {"measurement": "probe-labelled cysteine peptide fold change", "setting": "50 µM", "value": -0.00748}]}
{"target": "TOB2_Q14106_120_VLYLDDSEGCGAPELDK (UniProt Q14106)", "values": [{"measurement": "probe-labelled cysteine peptide fold change", "setting": "10 µM", "value": -0.297}, {"measurement": "probe-labelled cysteine peptide fold change", "setting": "50 µM", "value": -0.072}]}
{"target": "TM9SF4_Q92544_227_SSCTLPEGTNSSPQEIDPTK (UniProt Q92544)", "values": [{"measurement": "probe-labelled cysteine peptide fold change", "setting": "10 µM", "value": 0.304}, {"measurement": "probe-labelled cysteine peptide fold change", "setting": "50 µM", "value": -0.149}]}
{"target": "TOP3B_O95985_58_MTSVCGHVMTLDFLGK (UniProt O95985)", "values": [{"measurement": "probe-labelled cysteine peptide fold change", "setting": "10 µM", "value": 0.0618}, {"measurement": "probe-labelled cysteine peptide fold change", "setting": "50 µM", "value": -0.113}]}
{"target": "TNPO2_O14787_789_LGYVCPQEVAPMLQQFIR (UniProt O14787)", "values": [{"measurement": "probe-labelled cysteine peptide fold change", "setting": "10 µM", "value": 0.209}, {"measurement": "probe-labelled cysteine peptide fold change", "setting": "50 µM", "value": 0.122}]}
{"target": "TMEM147_Q9BVK8_116_CIPLWVGAR (UniProt Q9BVK8)", "values": [{"measurement": "probe-labelled cysteine peptide fold change", "setting": "10 µM", "value": 0.0725}, {"measurement": "probe-labelled cysteine peptide fold change", "setting": "50 µM", "value": 0.193}]}
{"target": "TNS3_Q68CZ2_842_ESMCSTPAFPVSPETPYVK (UniProt Q68CZ2)", "values": [{"measurement": "probe-labelled cysteine peptide fold change", "setting": "10 µM", "value": 0.142}, {"measurement": "probe-labelled cysteine peptide fold change", "setting": "50 µM", "value": 0.0525}]}
{"target": "TOP2B_Q02880_93_KTQLEHILLRPDTYIGSVEPLTQFMWVYDEDVGMNCR (UniProt Q02880)", "values": [{"measurement": "probe-labelled cysteine peptide fold change", "setting": "10 µM", "value": -0.0666}, {"measurement": "probe-labelled cysteine peptide fold change", "setting": "50 µM", "value": -0.0769}]}
{"target": "TOP2A_P11388_392_SFGSTCQLSEK (UniProt P11388)", "values": [{"measurement": "probe-labelled cysteine peptide fold change", "setting": "10 µM", "value": 0.0688}, {"measurement": "probe-labelled cysteine peptide fold change", "setting": "50 µM", "value": -0.0495}]}
{"target": "TOP2B_Q02880_237_HFDGEDYTCITFQPDLSK (UniProt Q02880)", "values": [{"measurement": "probe-labelled cysteine peptide fold change", "setting": "10 µM", "value": 0.0241}, {"measurement": "probe-labelled cysteine peptide fold change", "setting": "50 µM", "value": -0.00406}]}
{"target": "TMEM94_Q12767_984_GIHQVRPHLQNIDNVPLLVPLFTDCTPETMCEMIK (UniProt Q12767)", "values": [{"measurement": "probe-labelled cysteine peptide fold change", "setting": "10 µM", "value": -0.0567}, {"measurement": "probe-labelled cysteine peptide fold change", "setting": "50 µM", "value": 0.0187}]}
{"target": "TNS3_Q68CZ2_1241_HFLIECTPK (UniProt Q68CZ2)", "values": [{"measurement": "probe-labelled cysteine peptide fold change", "setting": "10 µM", "value": -0.0515}, {"measurement": "probe-labelled cysteine peptide fold change", "setting": "50 µM", "value": -0.0693}]}
{"target": "TOMM70_O94826_317_IISECSK (UniProt O94826)", "values": [{"measurement": "probe-labelled cysteine peptide fold change", "setting": "10 µM", "value": -0.112}, {"measurement": "probe-labelled cysteine peptide fold change", "setting": "50 µM", "value": 0.0394}]}
{"target": "TNRC18_O15417_2602_NCSAASSR (UniProt O15417)", "values": [{"measurement": "probe-labelled cysteine peptide fold change", "setting": "10 µM", "value": -0.131}, {"measurement": "probe-labelled cysteine peptide fold change", "setting": "50 µM", "value": 0.107}]}
{"target": "TNPO1_Q92973_164_ICEDSAEILDSDVLDRPLNIMIPK (UniProt Q92973)", "values": [{"measurement": "probe-labelled cysteine peptide fold change", "setting": "10 µM", "value": -0.0514}, {"measurement": "probe-labelled cysteine peptide fold change", "setting": "50 µM", "value": -0.0355}]}
{"target": "TMEM173_Q86WV6_12_PHSSLHPSIPCPR (UniProt Q86WV6)", "values": [{"measurement": "probe-labelled cysteine peptide fold change", "setting": "10 µM", "value": 0.0164}, {"measurement": "probe-labelled cysteine peptide fold change", "setting": "50 µM", "value": -0.104}]}
{"target": "TOP2A_P11388_997_LQTSLTCNSMVLFDHVGCLK (UniProt P11388)", "values": [{"measurement": "probe-labelled cysteine peptide fold change", "setting": "10 µM", "value": 0.078}, {"measurement": "probe-labelled cysteine peptide fold change", "setting": "50 µM", "value": 0.205}]}
{"target": "TOR3A_Q9H497_227_ETQQLCHQTLFIFDEAEK (UniProt Q9H497)", "values": [{"measurement": "probe-labelled cysteine peptide fold change", "setting": "10 µM", "value": 0.19}, {"measurement": "probe-labelled cysteine peptide fold change", "setting": "50 µM", "value": 0.126}]}
{"target": "TPD52L2_O43399_74_HCGELK (UniProt O43399)", "values": [{"measurement": "probe-labelled cysteine peptide fold change", "setting": "10 µM", "value": -0.1}, {"measurement": "probe-labelled cysteine peptide fold change", "setting": "50 µM", "value": -0.108}]}
{"target": "TOR1AIP2_Q8NFQ8_310_CLSHHVADAYTSSQK (UniProt Q8NFQ8)", "values": [{"measurement": "probe-labelled cysteine peptide fold change", "setting": "10 µM", "value": 0.143}, {"measurement": "probe-labelled cysteine peptide fold change", "setting": "50 µM", "value": 0.216}]}
